PubChem BioAssay AID686943 – Drosophila RNAi Screening Center – 2013
Purpose: 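Fly genes whose loss alters ERK activation after insulin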 (primary screen). Cells: Drosophila S2R+ haemocyte-like cells expressing YFP-tagged ERK (Rolled). Reagents: long dsRNA against Drosophila genes. Challenge: insulin stimulation versus unstimulated cells; dose and duration not given. Detection: 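Antibody staining for doubly phosphorylated ERK divided by ERK-YFP signal, as plate z-scores, in insulin-treated and untreated cells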. Reading the numbers: replicate 1, z-score of dpERK with insulin and replicate 2, z-score of dpERK with insulin: higher = more active ERK per ERK-YFP after insulin.
In all, the deposit lists about 23,000 reagents; below is an unselected part of those with a known target gene and a result. 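Extra replicates exist only for a retested subset of genes; insulin dose and duration not given; both raised and lowered dpERK matter.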 Further read-outs or replicates are left out here. The record does not give: the amount of reagent, the time to read-out.

Knock-down of CG42749 [DRSC18091] gave: replicate 1, z-score of dpERK with insulin 0.71; replicate 2, z-score of dpERK with insulin 0.34.
With knock-down of CG42749 [DRSC18092], the record shows replicate 1, z-score of dpERK with insulin 0.52; replicate 2, z-score of dpERK with insulin 0.48.
Depletion of Ptp52F [DRSC06717] gave: replicate 1, z-score of dpERK with insulin -0.91; replicate 2, z-score of dpERK with insulin -0.19.
Silencing of stum [DRSC04268] resulted in: replicate 1, z-score of dpERK with insulin -0.44; replicate 2, z-score of dpERK with insulin 0.09.
Against stum [DRSC04270] the deposit lists replicate 1, z-score of dpERK with insulin 0.27; replicate 2, z-score of dpERK with insulin -0.08.
With knock-down of HLH54F [DRSC07438], the screen gave replicate 1, z-score of dpERK with insulin -0.44; replicate 2, z-score of dpERK with insulin -1.34.
NAT1 [DRSC06854] scored replicate 1, z-score of dpERK with insulin 0.18; replicate 2, z-score of dpERK with insulin -1.01.
Silencing of Rexo5 [DRSC10981] came out at: replicate 1, z-score of dpERK with insulin -0.49; replicate 2, z-score of dpERK with insulin -0.17.
For mld [DRSC13681], the entry reads replicate 1, z-score of dpERK with insulin -2.35; replicate 2, z-score of dpERK with insulin -1.94.
Against mld [DRSC14622] the deposit lists replicate 1, z-score of dpERK with insulin 0.21; replicate 2, z-score of dpERK with insulin -0.12.
Depletion of CG3703 [DRSC18172] resulted in: replicate 1, z-score of dpERK with insulin 0.26; replicate 2, z-score of dpERK with insulin 0.
Knock-down of CG3703 [DRSC18173] gave: replicate 1, z-score of dpERK with insulin 0.63; replicate 2, z-score of dpERK with insulin 0.86.
Against CG3703 [DRSC18643], the entry reads replicate 1, z-score of dpERK with insulin -0.24; replicate 2, z-score of dpERK with insulin 0.45.
Silencing of Rcd6 [DRSC06054] came out at: replicate 1, z-score of dpERK with insulin 0.5; replicate 2, z-score of dpERK with insulin 1.38.
Against exd [DRSC20330], the entry reads replicate 1, z-score of dpERK with insulin 0.11; replicate 2, z-score of dpERK with insulin -0.22.

2 entries from above in another layout.
| gene | DRSC id | replicate 1, z-score of dpERK with insulin | replicate 2, z-score of dpERK with insulin |
| --- | --- | --- | --- |
| Ptp52F | DRSC06717 | -0.91 | -0.19 |
| stum | DRSC04268 | -0.44 | 0.09 |

The results go on:
For MESK2 [DRSC04258], the values are replicate 1, z-score of dpERK with insulin 0.41; replicate 2, z-score of dpERK with insulin -0.56.
After knock-down of CG14424 [DRSC18472], the screen gave replicate 1, z-score of dpERK with insulin -0.53; replicate 2, z-score of dpERK with insulin -0.18.
Silencing of Teh1 [DRSC14544] came out at: replicate 1, z-score of dpERK with insulin 1.76; replicate 2, z-score of dpERK with insulin 0.19.
Silencing of Rpt1 [DRSC07542] gave: replicate 1, z-score of dpERK with insulin -3.35; replicate 2, z-score of dpERK with insulin -4.74.
Silencing of CG18234 [DRSC10309] came out at: replicate 1, z-score of dpERK with insulin 0.08; replicate 2, z-score of dpERK with insulin -0.03.
Knock-down of CG6739 [DRSC02987] resulted in: replicate 1, z-score of dpERK with insulin 0.56; replicate 2, z-score of dpERK with insulin 0.92.
Silencing of CG2608 [DRSC02709] gave: replicate 1, z-score of dpERK with insulin 0.54; replicate 2, z-score of dpERK with insulin 0.14.
With knock-down of Cdk8 [DRSC11113], the screen gave replicate 1, z-score of dpERK with insulin 1.44; replicate 2, z-score of dpERK with insulin 0.77.
For Mal-A8 [DRSC07234], the values are replicate 1, z-score of dpERK with insulin -1.03; replicate 2, z-score of dpERK with insulin -0.36.
Nagk [DRSC15994] gave replicate 1, z-score of dpERK with insulin 0.38; replicate 2, z-score of dpERK with insulin 0.03.
For CG2909 [DRSC18241], the values are replicate 1, z-score of dpERK with insulin -0.8; replicate 2, z-score of dpERK with insulin 0.09.
After knock-down of CG12909 [DRSC06224], the record shows replicate 1, z-score of dpERK with insulin 0.03; replicate 2, z-score of dpERK with insulin 0.38.
ana1 [DRSC16079] scored replicate 1, z-score of dpERK with insulin 0.67; replicate 2, z-score of dpERK with insulin 0.27.
For ana1 [DRSC21825], the entry reads replicate 1, z-score of dpERK with insulin 0.81; replicate 2, z-score of dpERK with insulin 0.36.
CG13243 [DRSC01920] gave replicate 1, z-score of dpERK with insulin -0.64; replicate 2, z-score of dpERK with insulin -0.93.
For CG6978 [DRSC18409], the values are replicate 1, z-score of dpERK with insulin -0.83; replicate 2, z-score of dpERK with insulin 0.88.
